Reference: paper PMC8973879
Results are given in words; binding and its absence hold for the method and conditions named. Binding seen in cells or lysates may run through a third protein. Some results given as binding are weak or reduced against the parent protein; the word gives no strength. Sequences can lack the tags named with a protein.

Columns and labels:
Assay in all cases: co-IP; HEK293T cells transiently co-transfected with HA-FOXM1 and full-length or truncated Flag-STIL; immunoprecipitation with anti-Flag antibody; Western blotting
[1] = target: T1, Flag-STIL, full-length wild type (a.a. 1-1288) (human) (UniProt Q15468)
T1 sequence: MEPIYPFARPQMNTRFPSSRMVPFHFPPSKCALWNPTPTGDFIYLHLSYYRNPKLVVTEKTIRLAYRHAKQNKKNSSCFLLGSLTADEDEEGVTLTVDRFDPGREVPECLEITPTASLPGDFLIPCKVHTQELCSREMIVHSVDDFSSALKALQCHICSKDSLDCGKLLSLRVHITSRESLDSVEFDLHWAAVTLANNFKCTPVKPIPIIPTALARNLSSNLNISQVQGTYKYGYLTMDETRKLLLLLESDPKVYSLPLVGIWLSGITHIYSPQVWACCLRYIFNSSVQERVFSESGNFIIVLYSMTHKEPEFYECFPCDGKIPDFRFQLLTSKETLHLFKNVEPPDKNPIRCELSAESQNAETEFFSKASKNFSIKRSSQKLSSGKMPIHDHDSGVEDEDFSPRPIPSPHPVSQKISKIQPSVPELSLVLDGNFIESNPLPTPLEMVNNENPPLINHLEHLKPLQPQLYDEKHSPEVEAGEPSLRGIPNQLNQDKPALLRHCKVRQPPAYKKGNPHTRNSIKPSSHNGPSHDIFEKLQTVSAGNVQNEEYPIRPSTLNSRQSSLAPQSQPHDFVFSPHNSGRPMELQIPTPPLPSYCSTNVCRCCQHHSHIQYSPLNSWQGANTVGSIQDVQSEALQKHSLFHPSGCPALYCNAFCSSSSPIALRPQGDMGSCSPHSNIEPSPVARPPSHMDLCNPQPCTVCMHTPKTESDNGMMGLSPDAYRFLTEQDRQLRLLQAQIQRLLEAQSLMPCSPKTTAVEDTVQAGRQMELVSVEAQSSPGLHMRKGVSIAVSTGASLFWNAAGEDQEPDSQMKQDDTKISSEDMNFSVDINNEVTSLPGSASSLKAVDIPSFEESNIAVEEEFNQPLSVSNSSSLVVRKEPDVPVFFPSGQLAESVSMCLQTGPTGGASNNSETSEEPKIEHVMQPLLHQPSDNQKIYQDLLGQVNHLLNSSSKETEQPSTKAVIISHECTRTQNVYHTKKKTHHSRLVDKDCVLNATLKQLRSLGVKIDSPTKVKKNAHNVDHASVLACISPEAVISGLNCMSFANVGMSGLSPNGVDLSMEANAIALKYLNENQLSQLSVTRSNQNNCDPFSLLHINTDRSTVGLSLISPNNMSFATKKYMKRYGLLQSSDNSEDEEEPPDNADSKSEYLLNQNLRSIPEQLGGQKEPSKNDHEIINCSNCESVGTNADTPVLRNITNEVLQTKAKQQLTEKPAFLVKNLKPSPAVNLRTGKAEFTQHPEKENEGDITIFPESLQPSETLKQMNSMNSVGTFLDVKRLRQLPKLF

[2] = target: T2, Flag-STIL-C (a.a. 780-1288) (human) (UniProt Q15468)
T2 sequence: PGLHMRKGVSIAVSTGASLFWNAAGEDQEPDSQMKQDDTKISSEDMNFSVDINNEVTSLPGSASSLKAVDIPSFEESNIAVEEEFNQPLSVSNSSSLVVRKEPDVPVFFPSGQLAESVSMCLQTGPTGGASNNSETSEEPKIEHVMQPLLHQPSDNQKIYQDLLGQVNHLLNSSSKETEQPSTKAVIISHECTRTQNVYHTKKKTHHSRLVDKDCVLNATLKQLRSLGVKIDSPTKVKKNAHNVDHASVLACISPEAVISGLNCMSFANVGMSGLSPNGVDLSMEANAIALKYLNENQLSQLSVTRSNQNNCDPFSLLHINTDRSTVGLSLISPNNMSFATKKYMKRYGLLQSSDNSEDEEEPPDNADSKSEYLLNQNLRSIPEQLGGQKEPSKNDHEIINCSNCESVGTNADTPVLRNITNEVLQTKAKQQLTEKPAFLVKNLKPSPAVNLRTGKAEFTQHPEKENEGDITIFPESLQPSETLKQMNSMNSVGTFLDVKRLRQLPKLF

[3] = target: T3, Flag-STIL-M (a.a. 420-780) (human) (UniProt Q15468)
T3 sequence: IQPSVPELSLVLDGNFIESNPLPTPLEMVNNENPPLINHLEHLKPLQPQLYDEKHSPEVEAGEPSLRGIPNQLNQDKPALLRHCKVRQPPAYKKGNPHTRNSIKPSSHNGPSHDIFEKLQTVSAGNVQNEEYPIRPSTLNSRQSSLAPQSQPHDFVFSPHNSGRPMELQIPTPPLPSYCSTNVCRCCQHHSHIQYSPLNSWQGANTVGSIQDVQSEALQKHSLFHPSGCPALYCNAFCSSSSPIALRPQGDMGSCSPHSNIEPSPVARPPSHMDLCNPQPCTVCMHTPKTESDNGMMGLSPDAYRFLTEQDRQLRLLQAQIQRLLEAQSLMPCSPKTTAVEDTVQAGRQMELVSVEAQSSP

[4] = target: T4, Flag-STIL-N (a.a. 1-628) (human) (UniProt Q15468)
T4 sequence: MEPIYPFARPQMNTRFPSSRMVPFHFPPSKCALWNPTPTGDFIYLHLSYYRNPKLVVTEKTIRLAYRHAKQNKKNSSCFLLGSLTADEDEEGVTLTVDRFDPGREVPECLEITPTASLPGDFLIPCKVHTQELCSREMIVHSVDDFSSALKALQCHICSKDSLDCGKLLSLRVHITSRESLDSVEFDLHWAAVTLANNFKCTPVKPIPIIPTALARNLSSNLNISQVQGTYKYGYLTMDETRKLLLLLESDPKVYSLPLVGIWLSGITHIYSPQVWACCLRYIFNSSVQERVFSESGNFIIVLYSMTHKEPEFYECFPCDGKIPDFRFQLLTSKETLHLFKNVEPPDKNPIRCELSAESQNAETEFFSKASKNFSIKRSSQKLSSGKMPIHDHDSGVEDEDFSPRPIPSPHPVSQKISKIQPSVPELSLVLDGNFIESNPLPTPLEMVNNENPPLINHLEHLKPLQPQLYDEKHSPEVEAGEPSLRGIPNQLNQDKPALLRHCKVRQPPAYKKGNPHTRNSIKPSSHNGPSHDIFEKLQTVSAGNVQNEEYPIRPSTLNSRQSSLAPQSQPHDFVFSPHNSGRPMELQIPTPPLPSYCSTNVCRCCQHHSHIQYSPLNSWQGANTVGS

B1: HA-FOXM1 (protein, UniProt Q08050 1-763)
chain: MKTSPRRPLILKRRRLPLPVQNAPSETSEEEPKRSPAQQESNQAEASKEVAESNSCKFPAGIKIINHPTMPNTQVVAIPNNANIHSIITALTAKGKESGSSGPNKFILISCGGAPTQPPGLRPQTQTSYDAKRTEVTLETLGPKPAARDVNLPRPPGALCEQKRETCADGEAAGCTINNSLSNIQWLRKMSSDGLGSRSIKQEMEEKENCHLEQRQVKVEEPSRPSASWQNSVSERPPYSYMAMIQFAINSTERKRMTLKDIYTWIEDHFPYFKHIAKPGWKNSIRHNLSLHDMFVRETSANGKVSFWTIHPSANRYLTLDQVFKPLDPGSPQLPEHLESQQKRPNPELRRNMTIKTELPLGARRKMKPLLPRVSSYLVPIQFPVNQSLVLQPSVKVPLPLAASLMSSELARHSKRVRIAPKVLLAEEGIAPLSSAGPGKEEKLLFGEGFSPLLPVQTIKEEEIQPGEEMPHLARPIKVESPPLEEWPSPAPSFKEESSHSWEDSSQSPTPRPKKSYSGLRSPTRCVSEMLVIQHRERRERSRSRRKQHLLPPCVDEPELLFSEGPSTSRWAAELPFPADSSDPASQLSYSQEVGGPFKTPIKETLPISSTPSKSVLPRTPESWRLTPPAKVGGLDFSPVQTSQGASDPLPDPLGLMDLSTTPLQSAPPLESPQRLLSSEPLDLISVPFGNSSPSDIDVPKPGSPEPQVSGLAANRSLTEGLVLDTMNDSLSKILLDISFPGLDEDPLGPDNINWSQFIPELQ
[1]
  binding: binds
[2]
  binding: no binding
[3]
  binding: binds
[4]
  binding: no binding
